Patent publication US20200317791A1
No constants are given. Whether binding was seen depends on the method and setting. For some of these results: Binding calls can cover weak binding; strength is not graded here.

Key:
B49,Bw4_B*49:01 (human) = experiment: LABScreen beads
B48,Bw6_B*48:01 (human) = experiment: LABScreen beads
B60,Bw6_B*40:01 (human) = experiment: LABScreen beads
B56,Bw6_B*56:01 (human) = experiment: LABScreen beads
B18,Bw6_B*18:01 (human) = experiment: LABScreen beads
B82,Bw6_B*82:01 (human) = experiment: LABScreen beads
B71,Bw6_B*15:10 (human) = experiment: LABScreen beads
B13,Bw4_B*13:02 (human) = experiment: LABScreen beads
B44,Bw4_B*44:03 (human) = experiment: LABScreen beads
B50,Bw6_B*50:01 (human) = experiment: LABScreen beads
B52,Bw4_B*52:01 (human) = experiment: LABScreen beads
B13,Bw4_B*13:01 (human) = experiment: LABScreen beads
B51,Bw4_B*51:01 (human) = experiment: LABScreen beads
B62,Bw6_B*15:01 (human) = experiment: LABScreen beads
B61,Bw6_B*40:02 (human) = experiment: LABScreen beads
B39,Bw6_B*39:01 (human) = experiment: LABScreen beads
B76,Bw6_B*15:12 (human) = experiment: LABScreen beads
B81,Bw6_B*81:01 (human) = experiment: LABScreen beads
B51,Bw4_B*51:02 (human) = experiment: LABScreen beads
B59,Bw4_B*59:01 (human) = experiment: LABScreen beads
B38,Bw4_B*38:01 (human) = experiment: LABScreen beads
B55,Bw6_B*55:01 (human) = experiment: LABScreen beads
B42,Bw6_B*42:01 (human) = experiment: LABScreen beads
B47,Bw4_B*47:01 (human) = experiment: LABScreen beads
B77,Bw4_B*15:13 (human) = experiment: LABScreen beads
B72,Bw6_B*15:03 (human) = experiment: LABScreen beads
B27,Bw6_B*27:08 (human) = experiment: LABScreen beads
B53,Bw4_B*53:01 (human) = experiment: LABScreen beads
B45,Bw6_B*45:01 (human) = experiment: LABScreen beads
B44,Bw4_B*44:02 (human) = experiment: LABScreen beads
B67,Bw6_B*67:01 (human) = experiment: LABScreen beads
B75,Bw6_B*15:02 (human) = experiment: LABScreen beads
Cw2_C*02:02 (human) = experiment: LABScreen beads, 10 µg/ml antibody
Cw1_C*01:02 (human) = experiment: LABScreen beads, 10 µg/ml antibody
B8,Bw6_B*08:01 (human) = experiment: LABScreen beads, 10 µg/ml antibody
Cw14_C*14:02 (human) = experiment: LABScreen beads, 10 µg/ml antibody
B63,Bw4_B*15:16 (human) = experiment: LABScreen beads, 10 µg/ml antibody
B58,Bw4_B*58:01 (human) = experiment: LABScreen beads, 10 µg/ml antibody
Cw10_C*03:04 (human) = experiment: LABScreen beads, 10 µg/ml antibody
Cw16_C*16:01 (human) = experiment: LABScreen beads, 10 µg/ml antibody
B57,Bw4_B*57:03 (human) = experiment: LABScreen beads, 10 µg/ml antibody
B75,Bw6_B*15:11 (human) = experiment: LABScreen beads, 10 µg/ml antibody
Cw9_C*03:03 (human) = experiment: LABScreen beads, 10 µg/ml antibody
Cw8_C*08:01 (human) = experiment: LABScreen beads, 10 µg/ml antibody
Cw15_C*15:02 (human) = experiment: LABScreen beads, 10 µg/ml antibody
B65,Bw6_B*14:02 (human) = experiment: LABScreen beads, 10 µg/ml antibody
Cw5_C*05:01 (human) = experiment: LABScreen beads, 10 µg/ml antibody
[1] = target: Cw7_C*07:02 (human), C*07:0; experiment: LABScreen beads, 10 µg/ml antibody
Cw4_C*04:01 (human) = experiment: LABScreen beads, 10 µg/ml antibody
Cw10_C*03:02 (human) = experiment: LABScreen beads, 10 µg/ml antibody
Cw17_C*17:01 (human) = experiment: LABScreen beads, 10 µg/ml antibody
Cw18_C*18:02 (human) = experiment: LABScreen beads, 10 µg/ml antibody
B64,Bw6_B*14:01 (human) = experiment: LABScreen beads, 10 µg/ml antibody
B61,Bw6_B*40:06 (human) = experiment: LABScreen beads, 10 µg/ml antibody
Cw12_C*12:03 (human) = experiment: LABScreen beads, 10 µg/ml antibody

B1: CW6B230 (antibody, V domains shown)
VH: QVQLQESGPGLVKPSETLSLTCTVSGNSISNYYWSWIRQPAGKGLEWIGRIYITGNTNYNPSLKSRVTMSLDTSKNQFSLKLSSVTAADTAVYYCARLSGIDAFDIWGQGTMVTVSS
VL: DIQMTQSPSTLSASVGDRVTFTCQASQDITKYLNWYQQKPGKAPKLLIYDASNLETGVPSRFSGSGSGTDFTFTISSLQPEDFATYYCQQYDDLPITFGQGTRLEIK
binding (B49,Bw4_B*49:01 (human)): no binding (tested: 10 µg/ml) | binding (B48,Bw6_B*48:01 (human)): no binding (tested: 10 µg/ml) | binding (B60,Bw6_B*40:01 (human)): no binding (tested: 10 µg/ml) | binding (B56,Bw6_B*56:01 (human)): no binding (tested: 10 µg/ml) | binding (B18,Bw6_B*18:01 (human)): no binding (tested: 10 µg/ml) | binding (B82,Bw6_B*82:01 (human)): no binding (tested: 10 µg/ml) | binding (B71,Bw6_B*15:10 (human)): no binding (tested: 10 µg/ml) | binding (B13,Bw4_B*13:02 (human)): no binding (tested: 10 µg/ml) | binding (B44,Bw4_B*44:03 (human)): no binding (tested: 10 µg/ml) | binding (B50,Bw6_B*50:01 (human)): no binding (tested: 10 µg/ml) | binding (B52,Bw4_B*52:01 (human)): no binding (tested: 10 µg/ml) | binding (B13,Bw4_B*13:01 (human)): no binding (tested: 10 µg/ml) | binding (B51,Bw4_B*51:01 (human)): no binding (tested: 10 µg/ml) | binding (B62,Bw6_B*15:01 (human)): no binding (tested: 10 µg/ml) | binding (B61,Bw6_B*40:02 (human)): no binding (tested: 10 µg/ml) | binding (B39,Bw6_B*39:01 (human)): no binding (tested: 10 µg/ml) | binding (B76,Bw6_B*15:12 (human)): no binding (tested: 10 µg/ml) | binding (B81,Bw6_B*81:01 (human)): no binding (tested: 10 µg/ml) | binding (B51,Bw4_B*51:02 (human)): no binding (tested: 10 µg/ml) | binding (B59,Bw4_B*59:01 (human)): no binding (tested: 10 µg/ml) | binding (B38,Bw4_B*38:01 (human)): no binding (tested: 10 µg/ml) | binding (B55,Bw6_B*55:01 (human)): no binding (tested: 10 µg/ml) | binding (B42,Bw6_B*42:01 (human)): no binding (tested: 10 µg/ml) | binding (B47,Bw4_B*47:01 (human)): no binding (tested: 10 µg/ml) | binding (B77,Bw4_B*15:13 (human)): no binding (tested: 10 µg/ml) | binding (B72,Bw6_B*15:03 (human)): no binding (tested: 10 µg/ml) | binding (B27,Bw6_B*27:08 (human)): no binding (tested: 10 µg/ml) | binding (B53,Bw4_B*53:01 (human)): no binding (tested: 10 µg/ml) | binding (B45,Bw6_B*45:01 (human)): no binding (tested: 10 µg/ml) | binding (B44,Bw4_B*44:02 (human)): no binding (tested: 10 µg/ml) | binding (B67,Bw6_B*67:01 (human)): no binding (tested: 10 µg/ml) | binding (B75,Bw6_B*15:02 (human)): no binding (tested: 10 µg/ml) | binding (Cw2_C*02:02 (human)): binds | binding (Cw1_C*01:02 (human)): binds | binding (B8,Bw6_B*08:01 (human)): binds | binding (Cw14_C*14:02 (human)): binds | binding (B63,Bw4_B*15:16 (human)): binds | binding (B58,Bw4_B*58:01 (human)): binds | binding (Cw10_C*03:04 (human)): binds | binding (Cw16_C*16:01 (human)): binds | binding (B57,Bw4_B*57:03 (human)): binds | binding (B75,Bw6_B*15:11 (human)): binds | binding (Cw9_C*03:03 (human)): binds | binding (Cw8_C*08:01 (human)): binds | binding (Cw15_C*15:02 (human)): binds | binding (B65,Bw6_B*14:02 (human)): binds | binding (Cw5_C*05:01 (human)): binds | binding [1]: binds | binding (Cw4_C*04:01 (human)): binds | binding (Cw10_C*03:02 (human)): binds | binding (Cw17_C*17:01 (human)): binds | binding (Cw18_C*18:02 (human)): binds | binding (B64,Bw6_B*14:01 (human)): binds | binding (B61,Bw6_B*40:06 (human)): binds | binding (Cw12_C*12:03 (human)): binds
